Test results published in PubChem BioAssay AID651768 (National Center for Advancing Translational Sciences (NCATS), 2012).
The whole screen tested about 360,000 compounds, of which about 1,700 (0.47%) were called active. The inconclusive results got no clear call from the source; some entries with a clear call stand among them for comparison. Calls come from the whole dose curve; as a rule, active = well fitted inhibition curve with a large enough effect; inconclusive = small, poorly fitted or top-dose-only effect; inactive = no such curve, though single readings can be large or run the other way. Potencies beside an inconclusive call are fits to weak or partial responses and may not hold up.

Protein sequences, listed by entry. Tags and fused reporters are not part of them.
UniProt Q14191, whole entry, looked up: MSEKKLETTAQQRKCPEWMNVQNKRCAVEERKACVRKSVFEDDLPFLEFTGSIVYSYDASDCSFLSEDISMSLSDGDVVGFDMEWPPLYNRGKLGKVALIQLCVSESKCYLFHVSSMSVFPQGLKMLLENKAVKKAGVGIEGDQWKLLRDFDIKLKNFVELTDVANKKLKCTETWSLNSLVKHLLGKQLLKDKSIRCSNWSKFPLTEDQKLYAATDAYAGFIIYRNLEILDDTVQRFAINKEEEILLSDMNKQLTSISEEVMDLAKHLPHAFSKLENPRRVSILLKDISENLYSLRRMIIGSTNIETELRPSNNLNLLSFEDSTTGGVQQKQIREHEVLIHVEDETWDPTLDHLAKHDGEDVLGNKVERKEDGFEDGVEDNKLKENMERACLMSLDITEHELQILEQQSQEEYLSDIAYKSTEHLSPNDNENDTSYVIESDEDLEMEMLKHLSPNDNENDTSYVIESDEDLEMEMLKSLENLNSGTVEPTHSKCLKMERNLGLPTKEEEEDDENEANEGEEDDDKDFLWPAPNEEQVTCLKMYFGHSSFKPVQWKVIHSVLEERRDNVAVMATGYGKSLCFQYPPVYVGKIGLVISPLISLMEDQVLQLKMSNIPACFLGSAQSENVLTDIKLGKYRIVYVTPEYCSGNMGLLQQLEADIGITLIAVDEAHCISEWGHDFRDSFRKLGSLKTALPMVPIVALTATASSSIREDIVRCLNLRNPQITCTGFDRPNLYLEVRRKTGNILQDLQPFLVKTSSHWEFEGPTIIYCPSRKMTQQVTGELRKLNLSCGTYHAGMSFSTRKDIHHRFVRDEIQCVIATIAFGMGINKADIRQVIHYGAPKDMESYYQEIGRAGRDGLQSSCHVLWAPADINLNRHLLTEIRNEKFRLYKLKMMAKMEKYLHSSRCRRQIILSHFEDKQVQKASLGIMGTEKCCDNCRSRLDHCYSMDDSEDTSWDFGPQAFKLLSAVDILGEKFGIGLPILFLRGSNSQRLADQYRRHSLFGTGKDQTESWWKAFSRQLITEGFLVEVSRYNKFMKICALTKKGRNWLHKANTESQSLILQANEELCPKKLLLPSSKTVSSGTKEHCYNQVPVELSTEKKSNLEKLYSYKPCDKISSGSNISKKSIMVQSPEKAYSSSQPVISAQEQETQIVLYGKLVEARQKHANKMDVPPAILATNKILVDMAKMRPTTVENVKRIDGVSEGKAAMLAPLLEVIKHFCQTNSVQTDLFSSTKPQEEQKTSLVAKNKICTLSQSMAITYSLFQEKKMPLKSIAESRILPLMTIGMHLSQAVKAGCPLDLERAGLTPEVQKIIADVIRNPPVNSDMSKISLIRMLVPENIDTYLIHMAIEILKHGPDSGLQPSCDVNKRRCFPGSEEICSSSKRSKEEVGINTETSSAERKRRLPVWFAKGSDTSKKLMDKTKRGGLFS

Each molecule was assayed against Bifunctional 3'-5' exonuclease/ATP-dependent helicase WRN (Homo sapiens) (UniProt Q14191) (assay: qHTS for Inhibitors of WRN Helicase). Conditions: WRN helicase unwinding, fluorescent forked duplex, kinetic; activity change, negative = inhibition: at 114 µM (top of the series) unless noted.
Summary of the method: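 Fluorescence dequenching readout, ex 525 nm/em 598 nm, kinetic mode: forked duplex DNA (100 nM final) with adjacent fluorophore and quencher unwound by WRN (20 nM final) with 2 mM ATP. Compound preincubation 15 min, room temperature.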
% is set by controls: 0 for no effect and ±100 for the full control effect; potency is the fitted concentration of half-maximal effect.
Note: nearly all actives have a fitted effect of over 55% in size.

SMILES | Potency | activity change, negative = inhibition
O=C1NC(=O)C(=Cc2cc3c(cc2[N+](=O)[O-])OCO3)C(=O)N1 | active: 70.8 µM | –
O=C1NC(=O)C(=Cc2ccc(OCC(=O)N3CCOCC3)cc2)C(=O)N1 | inconclusive: 39.8 µM [inhibitor, partial curve] | –
COC(=O)C1=C(C(=O)OC)SC2(S1)C(C(=O)OC)=C(C(=O)OC)Sc1c2ssc1=O | active: 12.6 µM | –
CN1C(=O)/C(=C/C=C/c2ccco2)C(=O)NC1=S | active: 35.5 µM | –
O=C1NC(=S)NC(=O)C1=Cc1ccc(Br)s1 | inconclusive: 79.4 µM [inhibitor, partial curve] | –
C/C=C(\C)C(=O)N[C@@H](c1ccccc1)[C@@H](O)C(=O)O[C@H]1C[C@@]2(O)[C@@H](OC(=O)c3ccccc3)C3[C@](C)(C(=O)[C@H](OC(C)=O)C(=C1C)C2(C)C)[C@@H](O)C[C@H]1OC[C@@]31OC(C)=O (stereo not given in full) | – | inactive: 1.82%
C/C(=C/CCC(C)[C@H]1CC[C@@]2(C)C3=C(CC[C@]12C)[C@@]1(C)CCC(=O)C(C)(C)[C@@H]1CC3)C(=O)O (stereo not given in full) | active: 79.4 µM | –
Cc1cccc(OP(=O)(Nc2ccc(F)cc2)Oc2cccc(C)c2)c1 | – | inactive: -9.38%
O=C1NC(=O)N(Cc2ccc(F)cc2)C(=O)/C1=C\C=C\c1ccco1 | active: 35.5 µM | –
CCC(C)N1C(=O)/C(=C\c2cc3c4c(c2)CCCN4CCC3)C(=O)NC1=S (stereo not given) | inconclusive: 28.2 µM [inhibitor, single point] | –
Cc1cc(/C=C2\C(=O)NC(=O)N(c3ccccc3F)C2=O)c(C)n1-c1cc(C(=O)O)cc(C(=O)O)c1 | active: 39.8 µM | –
CCC1(C)CC(C(N)=S)CCO1 (stereo not given) | inconclusive: 35.5 µM [inhibitor, partial curve] | –
CC(C)c1ccc(N2C(=O)NC(=O)/C(=C/C=C/c3ccco3)C2=O)cc1 | active: 50.1 µM | –
O=C1NC(=O)N(Cc2ccccc2Cl)C(=O)/C1=C/c1cccs1 | inconclusive: 50.1 µM [inhibitor, partial curve] | –
Cn1c(O)c(C(c2ccncc2)c2c(O)n(C)c(=S)n(C)c2=O)c(=O)n(C)c1=S | inconclusive: 12.6 µM [inhibitor, full curve] | –
COC1C(O)C(C)OC(OC2C(Oc3cccc4c(O)c5c(=O)oc6ccc(C)c7c(=O)oc(c34)c5c67)OC(C)C(O)C2O)C1O (stereo not given) | inconclusive: 11.2 µM [inhibitor, full curve] | –
CCN1CCN(CC(c2ccccc2)c2ccccc2)CC1 | inconclusive: 79.4 µM [inhibitor, single point] | –
CCn1c(N)c(C(=O)NC)sc1=S | active: 56.2 µM | –
COc1ccc(S(=O)(=O)Nc2ccccc2OC)cc1N=Nc1c(O)[nH]c(=S)[nH]c1=O | inconclusive: 56.2 µM [inhibitor, partial curve] | –
Cc1cccc(N2C(=O)NC(=O)/C(=C\c3cc(C)n(-c4sc5c(c4C#N)CCCC5)c3C)C2=O)c1C | inconclusive: 50.1 µM [inhibitor, partial curve] | –
O=c1oc2ccccc2c(O)c1C(c1ccc([N+](=O)[O-])cc1)c1c(O)c2ccccc2oc1=O | inconclusive: 79.4 µM [inhibitor, partial curve] | –
Cc1ccc(S(=O)(=O)Cc2ccc(C(=O)N3CCC4(CC3)OCCO4)o2)cc1 | inconclusive: 56.2 µM [inhibitor, partial curve] | –
C=CCN1C(=O)/C(=C/c2cccs2)C(=O)NC1=S | active: 0.474 µM | –
CCc1ccc(N2NC(=O)/C(=C/C=C/c3ccco3)C2=O)cc1 | inconclusive: 7.94 µM [inhibitor, full curve, poor fit] | –
CCN1C(=O)CC(=O)N(CC)C1=S | inconclusive: 56.2 µM [inhibitor, partial curve] | –
CCOc1ccc(N2C(=O)/C(=C\c3cccs3)C(=O)NC2=S)cc1 | active: 39.8 µM | –
N/C(=N\N=C/c1ccc(-c2ccc(O)c(C(=O)O)c2)o1)N[N+](=O)[O-] | active: 25.1 µM | –
COc1cc(/C=C2\C(=O)NC(=O)N(CCc3ccc(F)cc3)C2=O)ccc1O | inconclusive: 50.1 µM [inhibitor, partial curve] | –
O=C1C=C(N2CC2)c2ccccc2C1=O | active: 44.7 µM | –
COc1ccccc1NS(=O)(=O)c1cc(NC(=O)c2ccc(Cl)nc2)ccc1N1CCCC1 | inconclusive: 28.2 µM [inhibitor, full curve] | –

Some values from the results shown.
Value for CC(C)c1ccc(N2C(=O)NC(=O)/C(=C/C=C/c3ccco3)C2=O)cc1 under Potency: active: 50.1 µM
Value for CN1C(=O)/C(=C/C=C/c2ccco2)C(=O)NC1=S under Potency: active: 35.5 µM
